These are yes or no findings as the source states them, for the method shown. In cells and extracts the contact can be indirect. Here binding means that the protein was enriched with, or labelled near, the bait; the list need not be complete. No binding means not detected with the bait. Tags and fused reporters may be left off the sequences shown.

Chains of the proteins cited; added tags and fusions are not shown.
UniProt A0A0D9RYS7: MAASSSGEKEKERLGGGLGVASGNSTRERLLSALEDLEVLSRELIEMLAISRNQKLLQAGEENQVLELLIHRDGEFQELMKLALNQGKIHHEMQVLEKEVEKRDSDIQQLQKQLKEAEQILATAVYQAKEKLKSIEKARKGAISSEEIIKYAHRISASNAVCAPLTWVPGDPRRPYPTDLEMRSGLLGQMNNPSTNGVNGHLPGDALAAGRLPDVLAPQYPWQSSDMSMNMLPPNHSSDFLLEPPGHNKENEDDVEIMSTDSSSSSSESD
UniProt A0A0D9S185: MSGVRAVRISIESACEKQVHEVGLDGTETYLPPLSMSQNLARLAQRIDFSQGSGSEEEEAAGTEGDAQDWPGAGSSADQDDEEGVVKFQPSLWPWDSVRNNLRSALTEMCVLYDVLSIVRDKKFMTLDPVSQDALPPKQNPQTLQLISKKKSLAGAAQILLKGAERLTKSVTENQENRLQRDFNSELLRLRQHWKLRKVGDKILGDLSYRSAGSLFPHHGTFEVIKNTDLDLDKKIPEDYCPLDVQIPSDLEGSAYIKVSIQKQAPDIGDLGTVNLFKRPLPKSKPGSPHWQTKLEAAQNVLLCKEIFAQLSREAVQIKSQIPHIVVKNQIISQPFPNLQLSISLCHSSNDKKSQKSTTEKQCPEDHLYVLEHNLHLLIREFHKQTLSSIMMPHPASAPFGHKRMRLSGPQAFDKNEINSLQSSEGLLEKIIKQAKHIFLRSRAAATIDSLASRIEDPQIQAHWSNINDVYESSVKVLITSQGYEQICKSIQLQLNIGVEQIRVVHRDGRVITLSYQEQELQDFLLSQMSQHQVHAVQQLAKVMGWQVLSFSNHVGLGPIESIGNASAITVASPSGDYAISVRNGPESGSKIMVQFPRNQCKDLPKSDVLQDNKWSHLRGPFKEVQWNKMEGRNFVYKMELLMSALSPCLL
UniProt A0A0D9S812: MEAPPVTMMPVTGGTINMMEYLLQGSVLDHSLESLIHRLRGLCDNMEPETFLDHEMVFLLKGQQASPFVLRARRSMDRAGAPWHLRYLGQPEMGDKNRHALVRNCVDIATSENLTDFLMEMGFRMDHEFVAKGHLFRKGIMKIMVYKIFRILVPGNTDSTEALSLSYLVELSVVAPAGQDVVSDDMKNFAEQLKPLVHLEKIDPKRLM
UniProt A0A0D9RIW4: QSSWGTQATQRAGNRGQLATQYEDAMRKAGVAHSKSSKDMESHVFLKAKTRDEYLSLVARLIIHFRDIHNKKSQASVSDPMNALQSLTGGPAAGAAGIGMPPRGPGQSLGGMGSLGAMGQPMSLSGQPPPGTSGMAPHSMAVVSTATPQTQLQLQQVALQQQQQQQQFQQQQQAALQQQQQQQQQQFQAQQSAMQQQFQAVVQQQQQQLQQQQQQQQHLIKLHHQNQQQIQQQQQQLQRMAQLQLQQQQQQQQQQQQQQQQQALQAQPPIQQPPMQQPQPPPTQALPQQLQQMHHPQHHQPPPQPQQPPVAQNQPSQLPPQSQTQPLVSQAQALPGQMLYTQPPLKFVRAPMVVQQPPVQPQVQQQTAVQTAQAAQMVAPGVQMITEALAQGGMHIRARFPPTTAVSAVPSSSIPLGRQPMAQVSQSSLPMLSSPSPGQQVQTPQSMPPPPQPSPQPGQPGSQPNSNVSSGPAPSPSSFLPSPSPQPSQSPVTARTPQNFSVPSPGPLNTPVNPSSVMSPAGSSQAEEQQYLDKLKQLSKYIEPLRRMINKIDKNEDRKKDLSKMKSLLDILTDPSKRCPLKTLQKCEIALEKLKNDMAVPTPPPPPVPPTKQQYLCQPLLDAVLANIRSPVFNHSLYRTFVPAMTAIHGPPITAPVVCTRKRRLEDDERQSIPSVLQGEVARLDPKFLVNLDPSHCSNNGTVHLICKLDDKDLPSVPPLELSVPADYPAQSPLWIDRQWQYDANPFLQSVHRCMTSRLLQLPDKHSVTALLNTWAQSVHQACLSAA
UniProt A0A0D9RJH3: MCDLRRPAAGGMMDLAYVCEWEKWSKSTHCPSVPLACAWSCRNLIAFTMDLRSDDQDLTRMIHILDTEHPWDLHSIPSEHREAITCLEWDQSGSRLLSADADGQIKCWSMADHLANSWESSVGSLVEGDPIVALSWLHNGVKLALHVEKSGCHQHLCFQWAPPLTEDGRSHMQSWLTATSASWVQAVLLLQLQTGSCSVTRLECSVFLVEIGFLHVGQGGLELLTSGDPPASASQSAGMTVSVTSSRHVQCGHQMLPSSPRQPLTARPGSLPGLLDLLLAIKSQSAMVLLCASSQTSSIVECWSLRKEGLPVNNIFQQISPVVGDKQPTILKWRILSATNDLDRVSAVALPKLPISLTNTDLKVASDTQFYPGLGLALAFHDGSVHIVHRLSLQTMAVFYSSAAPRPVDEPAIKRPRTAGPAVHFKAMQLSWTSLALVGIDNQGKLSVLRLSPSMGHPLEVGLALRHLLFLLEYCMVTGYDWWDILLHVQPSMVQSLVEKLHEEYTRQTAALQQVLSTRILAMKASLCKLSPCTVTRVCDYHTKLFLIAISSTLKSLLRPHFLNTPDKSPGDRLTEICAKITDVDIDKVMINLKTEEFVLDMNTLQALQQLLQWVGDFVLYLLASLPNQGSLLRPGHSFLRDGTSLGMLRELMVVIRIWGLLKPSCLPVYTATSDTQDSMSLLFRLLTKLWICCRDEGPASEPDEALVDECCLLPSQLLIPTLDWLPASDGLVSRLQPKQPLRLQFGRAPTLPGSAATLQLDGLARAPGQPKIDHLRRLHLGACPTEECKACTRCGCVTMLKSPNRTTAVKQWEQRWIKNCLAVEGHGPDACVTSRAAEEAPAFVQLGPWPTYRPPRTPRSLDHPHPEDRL

This experiment has as its target T1, TAP-tagged wild-type Infected Cell Polypeptide 4 (ICP4) of HSV-1 strain KOS (herpes simplex virus type 1 (HSV-1), strain KOS) (UniProt P08392).
T1 sequence: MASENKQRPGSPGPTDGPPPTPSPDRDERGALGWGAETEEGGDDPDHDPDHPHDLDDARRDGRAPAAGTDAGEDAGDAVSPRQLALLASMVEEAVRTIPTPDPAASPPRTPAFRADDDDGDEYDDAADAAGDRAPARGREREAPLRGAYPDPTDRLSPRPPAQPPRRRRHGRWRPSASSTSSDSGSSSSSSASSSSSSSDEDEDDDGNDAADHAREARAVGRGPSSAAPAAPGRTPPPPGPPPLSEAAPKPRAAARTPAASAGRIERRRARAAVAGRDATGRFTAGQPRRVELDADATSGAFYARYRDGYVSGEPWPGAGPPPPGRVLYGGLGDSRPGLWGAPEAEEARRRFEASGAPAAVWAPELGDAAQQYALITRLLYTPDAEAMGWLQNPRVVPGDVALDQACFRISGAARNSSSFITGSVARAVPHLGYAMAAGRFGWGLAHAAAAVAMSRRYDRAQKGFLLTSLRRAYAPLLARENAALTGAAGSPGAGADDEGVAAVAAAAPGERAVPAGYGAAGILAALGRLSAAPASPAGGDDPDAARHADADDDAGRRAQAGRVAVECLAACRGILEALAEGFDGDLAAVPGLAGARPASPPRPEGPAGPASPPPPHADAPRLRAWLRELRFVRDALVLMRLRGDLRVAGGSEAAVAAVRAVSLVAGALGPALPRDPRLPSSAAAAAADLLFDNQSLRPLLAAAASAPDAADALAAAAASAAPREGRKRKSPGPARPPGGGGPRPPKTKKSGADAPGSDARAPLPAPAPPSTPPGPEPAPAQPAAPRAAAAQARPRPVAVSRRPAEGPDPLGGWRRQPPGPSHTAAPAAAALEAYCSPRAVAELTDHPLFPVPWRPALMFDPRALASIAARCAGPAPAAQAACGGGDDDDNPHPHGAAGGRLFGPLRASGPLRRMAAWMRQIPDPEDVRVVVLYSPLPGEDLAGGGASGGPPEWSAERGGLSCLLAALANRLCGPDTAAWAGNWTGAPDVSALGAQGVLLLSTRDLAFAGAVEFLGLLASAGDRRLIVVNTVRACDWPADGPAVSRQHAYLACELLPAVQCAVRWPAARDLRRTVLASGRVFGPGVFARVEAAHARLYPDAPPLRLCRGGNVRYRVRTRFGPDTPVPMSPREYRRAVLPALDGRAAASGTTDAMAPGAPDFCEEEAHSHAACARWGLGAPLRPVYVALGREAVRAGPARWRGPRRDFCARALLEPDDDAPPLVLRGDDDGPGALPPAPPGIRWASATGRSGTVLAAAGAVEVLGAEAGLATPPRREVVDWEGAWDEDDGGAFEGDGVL
The experiment is described as follows: affinity purification with mass spectrometry; TAP-tagged ICP4 from nuclear extracts (0.4 M KCl) of Vero cells infected at 10 pfu/cell, harvested 3, 6 or 12 hpi (TAP-n208: 6 hpi); benzonase treated; streptavidin agarose overnight at 4°C; washes with 20 mM Hepes KOH pH 7.9, 200 mM KCl, 2 mM EDTA, 0.1% NP40; elution with 2 mM biotin; LC-MS/MS; untagged KOS or n208 infections as controls.
Take XPD: the binding result was “binds”.

Turning to CPSF5, the binding result was “no binding”.

With TAF8, the binding entry was “binds”.

As to CPSF4, the binding result was “binds”.

For the substance ARP5, the binding entry is recorded as “binds”.

Brahma: the binding result is on record as “binds”.

For the substance RUVBL2, the binding entry was “binds”.

With cyclin C, the binding entry is given as “binds”.

TBP: the binding result is listed as “binds”.

As for MAT1, the binding result is “binds”.

For TAF10, the binding result is “binds”.

Regarding MED27, the binding entry is “binds”.

For the substance cyclin H, the binding entry is given as “no binding”.

For MED4 (from UniProt A0A0D9RYS7 1-270), the binding result was “binds”.

Turning to MED17 (from UniProt A0A0D9S185 1-651), the binding entry was “binds”.

In the case of FIP1L1, the binding entry was “binds”.

For the substance MED1, the binding entry was “binds”.

TAF11: the binding result is reported as “binds”.

In the case of MED23, the binding result is reported as “binds”.

SMARCC2: the binding result is “binds”.

As for MED14, the binding result was “binds”.

With MED18 (from UniProt A0A0D9S812 1-208), the binding result is “binds”.

Regarding MED12, the binding entry is on record as “binds”.

Turning to CPSF1, the binding entry is “binds”.

MED13: the binding result was “binds”.

As for MED7, the binding result is “binds”.

Consider CDK7, for which the binding result is reported as “no binding”.

As to BAZ1B kinase, the binding entry was “binds”.

As for MED31, the binding entry is listed as “binds”.

For TAF9B, the binding result is “binds”.

For SMARCA4, the binding entry is listed as “binds”.

As to MED6, the binding entry is recorded as “binds”.

Turning to CHD4, the binding entry is “binds”.

TAF2: the binding result was “binds”.

Take MED15 (from UniProt A0A0D9RIW4 1-787): the binding entry is listed as “binds”.

In the case of TAF1, the binding result is on record as “binds”.

As for RUVBL1, the binding result is recorded as “binds”.

With CPSF6, the binding result is reported as “no binding”.

For the substance TAF5, the binding result is “binds”.

XPB: the binding result is “binds”.

HDAC2: the binding result was “binds”.

Consider CHD3, for which the binding entry is given as “binds”.

CPSF3L: the binding result is listed as “binds”.

As to TAF4, the binding result is recorded as “binds”.

Take cyclin dependent kinase (CDK) 8: the binding entry is on record as “binds”.

Consider CPSF7, for which the binding entry is given as “binds”.

Regarding MED25, the binding entry is “binds”.

On to TAF3, for which the binding entry was “binds”.

Regarding MED16 (from UniProt A0A0D9RJH3 1-871), the binding entry was “binds”.

In the case of TAF12, the binding entry is “binds”.

Consider TAF7, for which the binding result is “binds”.

On to TAF6, for which the binding entry is “binds”.

For Med26, the binding result is on record as “no binding”.

In the case of CPSF2, the binding result is recorded as “binds”.
